{"sequences": {"note": "Protein sequences, listed by entry. Tags and fused reporters are not part of them. Lines headed by an entry give the natural chain unless they say otherwise; changes in a name come on top. Residues count along the entry.", "UniProt Q8TAD8": "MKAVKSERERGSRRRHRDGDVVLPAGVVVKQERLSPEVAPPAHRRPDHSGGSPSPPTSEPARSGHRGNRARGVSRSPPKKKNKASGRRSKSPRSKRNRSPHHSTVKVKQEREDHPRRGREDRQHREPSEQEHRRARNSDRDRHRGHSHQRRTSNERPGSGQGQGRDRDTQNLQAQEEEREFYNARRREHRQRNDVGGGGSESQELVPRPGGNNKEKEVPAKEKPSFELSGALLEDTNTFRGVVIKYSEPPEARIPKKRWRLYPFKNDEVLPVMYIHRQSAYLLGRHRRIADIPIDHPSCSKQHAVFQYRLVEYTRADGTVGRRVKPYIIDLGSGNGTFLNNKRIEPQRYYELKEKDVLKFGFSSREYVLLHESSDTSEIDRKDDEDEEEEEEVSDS", "UniProt O14975": "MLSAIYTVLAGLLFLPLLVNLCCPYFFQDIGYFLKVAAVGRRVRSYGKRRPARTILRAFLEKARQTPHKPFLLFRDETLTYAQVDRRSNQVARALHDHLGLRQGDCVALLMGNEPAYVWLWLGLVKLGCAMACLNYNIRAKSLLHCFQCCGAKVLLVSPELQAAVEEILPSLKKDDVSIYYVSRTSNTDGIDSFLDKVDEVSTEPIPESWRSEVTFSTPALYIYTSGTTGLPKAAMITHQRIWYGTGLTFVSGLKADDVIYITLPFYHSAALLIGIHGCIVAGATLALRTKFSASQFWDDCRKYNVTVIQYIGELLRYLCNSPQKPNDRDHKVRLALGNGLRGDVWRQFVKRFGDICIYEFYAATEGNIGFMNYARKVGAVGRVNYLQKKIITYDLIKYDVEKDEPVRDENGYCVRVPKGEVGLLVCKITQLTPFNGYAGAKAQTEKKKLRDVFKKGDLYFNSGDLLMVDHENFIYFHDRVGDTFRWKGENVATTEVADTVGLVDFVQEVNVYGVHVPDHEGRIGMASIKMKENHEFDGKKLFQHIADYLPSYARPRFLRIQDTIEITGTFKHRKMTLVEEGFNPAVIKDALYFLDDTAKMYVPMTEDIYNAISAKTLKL", "UniProt Q6P1M0": "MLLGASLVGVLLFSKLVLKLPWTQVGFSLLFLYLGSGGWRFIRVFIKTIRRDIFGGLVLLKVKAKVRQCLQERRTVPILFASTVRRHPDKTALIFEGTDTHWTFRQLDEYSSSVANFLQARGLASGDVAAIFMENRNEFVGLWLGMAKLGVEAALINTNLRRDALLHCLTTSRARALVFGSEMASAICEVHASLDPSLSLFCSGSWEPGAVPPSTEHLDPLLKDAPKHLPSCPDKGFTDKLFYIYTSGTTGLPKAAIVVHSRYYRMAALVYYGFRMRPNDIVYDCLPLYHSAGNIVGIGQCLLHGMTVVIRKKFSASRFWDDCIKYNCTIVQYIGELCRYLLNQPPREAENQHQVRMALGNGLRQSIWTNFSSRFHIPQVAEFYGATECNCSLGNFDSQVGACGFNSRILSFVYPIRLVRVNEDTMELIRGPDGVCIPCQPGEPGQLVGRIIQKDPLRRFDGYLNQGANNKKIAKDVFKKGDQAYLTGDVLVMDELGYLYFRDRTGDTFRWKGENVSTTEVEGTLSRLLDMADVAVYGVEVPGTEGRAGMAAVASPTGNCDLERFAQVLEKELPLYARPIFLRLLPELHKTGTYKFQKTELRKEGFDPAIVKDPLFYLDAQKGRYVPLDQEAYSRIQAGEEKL", "UniProt Q8IY18": "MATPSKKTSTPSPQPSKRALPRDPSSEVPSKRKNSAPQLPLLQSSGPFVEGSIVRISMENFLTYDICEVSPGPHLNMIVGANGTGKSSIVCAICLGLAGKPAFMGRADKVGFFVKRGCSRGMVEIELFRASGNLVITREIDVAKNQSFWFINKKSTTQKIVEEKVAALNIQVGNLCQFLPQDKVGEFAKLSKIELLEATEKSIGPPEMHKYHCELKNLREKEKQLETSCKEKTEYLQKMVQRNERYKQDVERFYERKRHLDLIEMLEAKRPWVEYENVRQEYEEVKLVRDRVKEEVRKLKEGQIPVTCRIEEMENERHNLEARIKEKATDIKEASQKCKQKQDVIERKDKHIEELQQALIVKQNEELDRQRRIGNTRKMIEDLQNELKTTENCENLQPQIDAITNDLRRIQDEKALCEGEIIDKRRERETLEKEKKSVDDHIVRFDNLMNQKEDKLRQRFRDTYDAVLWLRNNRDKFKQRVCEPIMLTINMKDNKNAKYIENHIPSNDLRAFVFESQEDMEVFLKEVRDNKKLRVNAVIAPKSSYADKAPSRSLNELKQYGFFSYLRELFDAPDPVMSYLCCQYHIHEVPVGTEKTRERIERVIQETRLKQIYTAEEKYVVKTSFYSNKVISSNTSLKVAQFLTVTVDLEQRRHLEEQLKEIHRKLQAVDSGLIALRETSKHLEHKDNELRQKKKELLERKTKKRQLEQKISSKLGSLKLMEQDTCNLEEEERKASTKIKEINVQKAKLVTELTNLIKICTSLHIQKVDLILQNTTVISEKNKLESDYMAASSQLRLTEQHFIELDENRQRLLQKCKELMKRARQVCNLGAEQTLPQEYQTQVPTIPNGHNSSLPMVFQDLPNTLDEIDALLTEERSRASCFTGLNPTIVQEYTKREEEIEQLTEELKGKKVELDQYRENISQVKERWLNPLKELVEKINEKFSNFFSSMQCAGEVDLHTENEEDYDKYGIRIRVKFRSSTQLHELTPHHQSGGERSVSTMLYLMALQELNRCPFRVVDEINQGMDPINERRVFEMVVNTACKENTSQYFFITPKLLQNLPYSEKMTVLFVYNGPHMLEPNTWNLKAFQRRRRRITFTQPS", "UniProt Q9NXE4": "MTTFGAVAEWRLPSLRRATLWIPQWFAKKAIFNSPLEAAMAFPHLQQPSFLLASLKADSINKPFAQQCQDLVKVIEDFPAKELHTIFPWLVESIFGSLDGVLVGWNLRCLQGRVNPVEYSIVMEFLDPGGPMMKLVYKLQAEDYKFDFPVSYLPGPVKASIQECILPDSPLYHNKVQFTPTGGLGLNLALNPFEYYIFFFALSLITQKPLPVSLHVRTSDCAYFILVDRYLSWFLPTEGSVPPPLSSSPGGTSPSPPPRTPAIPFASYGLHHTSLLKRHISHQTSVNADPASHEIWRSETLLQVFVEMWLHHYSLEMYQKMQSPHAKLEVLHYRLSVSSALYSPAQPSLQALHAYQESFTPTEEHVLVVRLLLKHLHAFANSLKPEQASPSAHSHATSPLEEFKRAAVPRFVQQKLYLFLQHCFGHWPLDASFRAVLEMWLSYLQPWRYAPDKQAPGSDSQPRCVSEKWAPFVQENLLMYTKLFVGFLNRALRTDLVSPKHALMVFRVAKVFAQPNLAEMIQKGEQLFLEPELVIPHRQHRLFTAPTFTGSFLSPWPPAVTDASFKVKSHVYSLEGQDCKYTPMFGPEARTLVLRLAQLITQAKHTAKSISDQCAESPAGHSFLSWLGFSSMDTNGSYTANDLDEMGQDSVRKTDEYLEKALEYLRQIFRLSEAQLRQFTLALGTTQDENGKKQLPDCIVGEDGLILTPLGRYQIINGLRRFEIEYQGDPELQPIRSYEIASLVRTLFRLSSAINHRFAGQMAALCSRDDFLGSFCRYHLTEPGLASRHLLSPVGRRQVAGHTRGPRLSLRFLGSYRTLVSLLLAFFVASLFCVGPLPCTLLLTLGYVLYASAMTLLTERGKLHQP", "UniProt Q9H4F8": "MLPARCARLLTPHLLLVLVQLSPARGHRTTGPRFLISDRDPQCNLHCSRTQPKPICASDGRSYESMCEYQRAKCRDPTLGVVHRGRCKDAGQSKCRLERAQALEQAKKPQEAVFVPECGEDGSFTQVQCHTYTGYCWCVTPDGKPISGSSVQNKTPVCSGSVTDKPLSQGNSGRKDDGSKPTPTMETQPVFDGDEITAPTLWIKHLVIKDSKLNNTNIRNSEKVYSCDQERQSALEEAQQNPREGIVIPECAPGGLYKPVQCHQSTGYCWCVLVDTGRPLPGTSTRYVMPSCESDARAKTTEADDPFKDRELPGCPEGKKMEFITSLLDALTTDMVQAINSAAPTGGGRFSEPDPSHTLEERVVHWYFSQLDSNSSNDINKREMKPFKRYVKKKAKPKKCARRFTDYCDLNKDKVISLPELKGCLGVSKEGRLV", "UniProt Q6IEG0": "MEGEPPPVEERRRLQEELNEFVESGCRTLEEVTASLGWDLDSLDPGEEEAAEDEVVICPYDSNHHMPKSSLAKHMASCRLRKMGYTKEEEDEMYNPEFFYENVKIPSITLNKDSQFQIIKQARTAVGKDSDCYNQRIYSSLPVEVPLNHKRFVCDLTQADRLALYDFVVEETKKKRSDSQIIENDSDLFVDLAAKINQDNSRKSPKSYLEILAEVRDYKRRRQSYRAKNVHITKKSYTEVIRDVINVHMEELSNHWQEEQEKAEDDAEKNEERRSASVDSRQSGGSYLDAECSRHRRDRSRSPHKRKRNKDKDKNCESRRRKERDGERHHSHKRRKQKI", "UniProt Q15477": "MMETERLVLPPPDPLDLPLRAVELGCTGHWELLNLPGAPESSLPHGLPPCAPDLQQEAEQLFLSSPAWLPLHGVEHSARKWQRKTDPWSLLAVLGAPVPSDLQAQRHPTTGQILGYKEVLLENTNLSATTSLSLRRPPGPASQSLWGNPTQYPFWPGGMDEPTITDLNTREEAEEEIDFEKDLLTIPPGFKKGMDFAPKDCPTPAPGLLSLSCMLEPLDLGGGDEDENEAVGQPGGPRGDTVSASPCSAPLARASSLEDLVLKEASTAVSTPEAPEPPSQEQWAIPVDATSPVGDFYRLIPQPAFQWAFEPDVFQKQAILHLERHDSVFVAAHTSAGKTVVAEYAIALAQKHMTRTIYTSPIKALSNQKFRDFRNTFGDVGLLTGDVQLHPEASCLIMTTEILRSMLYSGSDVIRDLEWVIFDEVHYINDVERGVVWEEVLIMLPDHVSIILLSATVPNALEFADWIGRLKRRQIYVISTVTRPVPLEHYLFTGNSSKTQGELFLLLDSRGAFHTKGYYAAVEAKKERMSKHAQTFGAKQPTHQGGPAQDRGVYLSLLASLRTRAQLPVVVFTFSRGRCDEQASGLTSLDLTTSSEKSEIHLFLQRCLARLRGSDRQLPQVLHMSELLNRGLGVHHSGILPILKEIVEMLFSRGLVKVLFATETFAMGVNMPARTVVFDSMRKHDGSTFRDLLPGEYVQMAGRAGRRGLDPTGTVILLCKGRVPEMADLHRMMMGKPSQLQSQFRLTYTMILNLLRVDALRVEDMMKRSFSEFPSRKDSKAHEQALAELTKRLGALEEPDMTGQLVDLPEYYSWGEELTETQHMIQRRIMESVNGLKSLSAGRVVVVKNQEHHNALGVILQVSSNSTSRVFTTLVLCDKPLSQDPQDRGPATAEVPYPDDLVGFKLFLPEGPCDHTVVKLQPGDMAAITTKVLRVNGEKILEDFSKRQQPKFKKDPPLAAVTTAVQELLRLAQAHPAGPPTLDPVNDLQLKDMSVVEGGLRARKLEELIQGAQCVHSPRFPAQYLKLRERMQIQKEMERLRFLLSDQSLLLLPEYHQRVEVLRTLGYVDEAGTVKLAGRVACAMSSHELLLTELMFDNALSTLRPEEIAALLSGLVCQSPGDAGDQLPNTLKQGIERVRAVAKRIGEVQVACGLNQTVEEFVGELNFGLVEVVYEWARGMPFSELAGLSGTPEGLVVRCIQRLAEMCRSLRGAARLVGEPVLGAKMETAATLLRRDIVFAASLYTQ", "UniProt P53007, whole entry, looked up": "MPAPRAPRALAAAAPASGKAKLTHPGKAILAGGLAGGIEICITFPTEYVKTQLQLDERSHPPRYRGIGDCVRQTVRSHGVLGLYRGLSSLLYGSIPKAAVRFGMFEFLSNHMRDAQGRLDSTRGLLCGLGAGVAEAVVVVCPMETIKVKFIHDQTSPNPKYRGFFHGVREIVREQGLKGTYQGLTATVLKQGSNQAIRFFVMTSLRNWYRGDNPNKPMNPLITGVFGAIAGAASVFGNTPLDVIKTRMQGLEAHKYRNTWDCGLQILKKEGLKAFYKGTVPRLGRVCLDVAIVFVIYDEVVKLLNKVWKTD", "UniProt Q92925, whole entry, looked up": "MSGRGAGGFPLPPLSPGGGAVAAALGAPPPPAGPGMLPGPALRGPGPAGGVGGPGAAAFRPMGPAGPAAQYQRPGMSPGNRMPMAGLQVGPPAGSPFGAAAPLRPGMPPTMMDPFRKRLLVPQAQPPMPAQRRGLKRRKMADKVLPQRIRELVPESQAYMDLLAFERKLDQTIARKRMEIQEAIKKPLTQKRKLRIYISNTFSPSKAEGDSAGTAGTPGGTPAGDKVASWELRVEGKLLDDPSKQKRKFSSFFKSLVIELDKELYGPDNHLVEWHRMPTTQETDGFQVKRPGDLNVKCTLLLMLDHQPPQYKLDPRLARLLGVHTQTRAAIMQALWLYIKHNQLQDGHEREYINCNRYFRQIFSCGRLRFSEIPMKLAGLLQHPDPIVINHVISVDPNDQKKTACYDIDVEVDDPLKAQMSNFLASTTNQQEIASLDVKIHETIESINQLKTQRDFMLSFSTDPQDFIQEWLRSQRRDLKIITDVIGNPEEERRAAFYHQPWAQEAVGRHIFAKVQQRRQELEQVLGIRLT", "UniProt Q9H4L7, 88-113": "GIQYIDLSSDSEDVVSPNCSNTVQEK"}, "source": "the supplement of paper PMC11732987", "about": "“Enantioselective OTUD7B fragment discovery through chemoproteomics screening and high-throughput optimisation” (Communications Chemistry, 2025)", "note": "The other results are listed elsewhere or left out. The data scatter; read single values as rough."}
{"compound": "ClCC(=O)N[C@@H]1CCCc2ccccc12", "assay": "log2 mean competition ratio of IA-DTB cysteine labelling (DMSO/compound) (log2 ratio); higher = stronger cysteine engagement by compound", "conditions": "50 µM; treatment time: 4 h; cell line lysate: HEK293T", "experimental": "(§1)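 IA-DTB competitive cysteine chemoproteomics in HEK293T RIPA lysate. Lysates were treated with compound 29 or 30 at 50 or 200 µM for 4 h, then IA-DTB (500 µM, 1 h), trypsin-digested, NeutrAvidin-enriched and analysed by diaPASEF. Competition ratio = intensity DMSO / intensity compound (n=4 treated, n=64 DMSO); binding: mean log2 CR ≥ 1 and p ≤ 0.05 plus QC filters. Target is the cysteine site.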"}
{"target": "SNIP1 C299 (UniProt Q8TAD8)", "log2 mean competition ratio": -0.0792}
{"target": "SLC27A2 C301 (UniProt O14975)", "log2 mean competition ratio": -0.437}
{"target": "SLC27A2 C414 (UniProt O14975)", "log2 mean competition ratio": -0.337}
{"target": "SLC27A4 C323 (UniProt Q6P1M0)", "log2 mean competition ratio": 0.0893}
{"target": "SMC5 C881 (UniProt Q8IY18)", "log2 mean competition ratio": 0.193}
{"target": "SLC7A2 C376 (UniProt P52569)", "log2 mean competition ratio": -0.149}
{"target": "SMPD4 C698 (UniProt Q9NXE4)", "log2 mean competition ratio": -0.458}
{"target": "SMOC1 C315 (UniProt Q9H4F8)", "log2 mean competition ratio": 0.144}
{"target": "SMC5 C229 (UniProt Q8IY18)", "log2 mean competition ratio": -0.344}
{"target": "SMPD4 C164 (UniProt Q9NXE4)", "log2 mean competition ratio": -0.233}
{"target": "SLC25A19 C268 (UniProt Q9HC21)", "log2 mean competition ratio": -0.0197}
{"target": "SNTB2 C450 (UniProt Q13425)", "log2 mean competition ratio": -0.235}
{"target": "SNRNP48 C132 (UniProt Q6IEG0)", "log2 mean competition ratio": -0.222}
{"target": "SNTA1 C226 (UniProt Q13424)", "log2 mean competition ratio": -0.145}
{"target": "SKIV2L C913 (UniProt Q15477)", "log2 mean competition ratio": -0.0791}
{"target": "SLC25A1 C70 (UniProt P53007)", "log2 mean competition ratio": -0.0366}
{"target": "SMARCD2 C365 (UniProt Q92925)", "log2 mean competition ratio": -0.139}
{"target": "SLC30A9 C141 (UniProt Q6PML9)", "log2 mean competition ratio": 0.164}
{"target": "SMARCAD1 C106 (UniProt Q9H4L7)", "log2 mean competition ratio": -0.245}
{"target": "SLBP C15 (UniProt Q14493)", "log2 mean competition ratio": 0.0233}
{"compound": "ClCC(=O)N[C@@H]1CCCc2ccccc12", "assay": "log2 mean competition ratio of IA-DTB cysteine labelling (DMSO/compound) (log2 ratio); higher = stronger cysteine engagement by compound", "conditions": "200 µM; treatment time: 4 h; cell line lysate: HEK293T", "experimental": "as §1"}
{"target": "SNIP1 C299 (UniProt Q8TAD8)", "log2 mean competition ratio": 0.0211}
{"target": "SLC27A2 C301 (UniProt O14975)", "log2 mean competition ratio": -0.0514}
{"target": "SLC27A2 C414 (UniProt O14975)", "log2 mean competition ratio": 0.0177}
{"target": "SLC27A4 C323 (UniProt Q6P1M0)", "log2 mean competition ratio": -0.146}
{"target": "SMC5 C881 (UniProt Q8IY18)", "log2 mean competition ratio": -0.0289}
{"target": "SLC7A2 C376 (UniProt P52569)", "log2 mean competition ratio": -0.294}
{"target": "SMPD4 C698 (UniProt Q9NXE4)", "log2 mean competition ratio": 0.166}
{"target": "SMOC1 C315 (UniProt Q9H4F8)", "log2 mean competition ratio": -0.259}
{"target": "SMC5 C229 (UniProt Q8IY18)", "log2 mean competition ratio": 0.246}
{"target": "SMPD4 C164 (UniProt Q9NXE4)", "log2 mean competition ratio": 0.0311}
{"target": "SLC25A19 C268 (UniProt Q9HC21)", "log2 mean competition ratio": 0.126}
{"target": "SNTB2 C450 (UniProt Q13425)", "log2 mean competition ratio": -0.246}
{"target": "SNRNP48 C132 (UniProt Q6IEG0)", "log2 mean competition ratio": 0.148}
{"target": "SNTA1 C226 (UniProt Q13424)", "log2 mean competition ratio": -0.017}
{"target": "SKIV2L C913 (UniProt Q15477)", "log2 mean competition ratio": 0.0401}
{"target": "SLC25A1 C70 (UniProt P53007)", "log2 mean competition ratio": 0.197}
{"target": "SMARCD2 C365 (UniProt Q92925)", "log2 mean competition ratio": 0.48}
{"target": "SLC30A9 C141 (UniProt Q6PML9)", "log2 mean competition ratio": -0.161}
{"target": "SMARCAD1 C106 (UniProt Q9H4L7)", "log2 mean competition ratio": -0.38}
{"target": "SLBP C15 (UniProt Q14493)", "log2 mean competition ratio": 0.258}
